Reference: paper PMC8034861
No constants are given. Whether binding was seen depends on the method and setting. In cells and extracts the contact can be indirect. Some entries that bind do so weakly or less than the wild type. For some of these results: Where a sequence is shown, tags or fusion partners need not be part of it.

The chains behind the UniProt entries cited, without tags or fusion partners.
UniProt P33176: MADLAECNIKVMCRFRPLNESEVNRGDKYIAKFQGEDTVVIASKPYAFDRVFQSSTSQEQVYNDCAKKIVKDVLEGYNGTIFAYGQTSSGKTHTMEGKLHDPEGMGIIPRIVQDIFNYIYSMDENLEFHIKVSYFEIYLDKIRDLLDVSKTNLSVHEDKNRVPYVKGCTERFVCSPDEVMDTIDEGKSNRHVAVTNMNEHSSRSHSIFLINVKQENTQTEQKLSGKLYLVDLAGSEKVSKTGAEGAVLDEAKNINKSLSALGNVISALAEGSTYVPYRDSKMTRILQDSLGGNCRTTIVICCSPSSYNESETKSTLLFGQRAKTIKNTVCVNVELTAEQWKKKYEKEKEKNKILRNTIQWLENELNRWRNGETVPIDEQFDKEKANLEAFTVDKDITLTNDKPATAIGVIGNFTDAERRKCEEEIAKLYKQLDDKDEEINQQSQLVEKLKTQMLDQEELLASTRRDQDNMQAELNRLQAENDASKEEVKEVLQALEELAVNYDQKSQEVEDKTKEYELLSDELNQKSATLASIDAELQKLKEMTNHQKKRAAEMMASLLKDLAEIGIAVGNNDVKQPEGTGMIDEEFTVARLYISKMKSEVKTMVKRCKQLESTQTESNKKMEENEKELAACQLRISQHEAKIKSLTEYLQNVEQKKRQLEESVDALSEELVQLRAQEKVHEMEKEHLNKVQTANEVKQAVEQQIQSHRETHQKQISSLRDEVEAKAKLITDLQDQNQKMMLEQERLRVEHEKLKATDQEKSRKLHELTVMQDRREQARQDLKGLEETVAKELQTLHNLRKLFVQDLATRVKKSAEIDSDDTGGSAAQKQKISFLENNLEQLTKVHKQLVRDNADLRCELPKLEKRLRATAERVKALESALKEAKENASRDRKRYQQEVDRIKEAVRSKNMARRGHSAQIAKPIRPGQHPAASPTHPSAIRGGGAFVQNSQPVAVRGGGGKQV

Experiments:
[1] = molecular target: T1, PR20 peptide as used in the proximity ligation assay (human); assay: proximity ligation; Duolink PLA in fixed human sMNs exposed to PR20; signals in cell body and processes; only the target purified
T1 sequence (peptide): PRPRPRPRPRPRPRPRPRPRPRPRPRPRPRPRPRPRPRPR

[2] = molecular target: T2, hemagglutinin (HA)-tagged GP20 peptide (human); assay: co-IP; human iPSC-derived sMNs treated with 10 μM HA-labeled peptide for 3 hours, cross-linked with 1% paraformaldehyde, lysed (150 mM NaCl, 25 mM tris, 1 mM EDTA, 1% NP-40, 5% glycerol, pH 7.4); anti-HA magnetic beads, 1 hour at room temperature; immunoblot; only the target purified
T2 sequence (peptide): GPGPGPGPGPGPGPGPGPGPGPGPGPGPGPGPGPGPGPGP

[3] = molecular target: T3, hemagglutinin (HA)-tagged GR20 peptide (human); assay: as above
T3 sequence (peptide): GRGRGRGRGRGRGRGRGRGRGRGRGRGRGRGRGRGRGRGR

[4] = molecular target: T4, hemagglutinin (HA)-tagged PR20 peptide (human); assay: as above
T4 sequence (peptide): T1 sequence (peptide)

- binding [1]: binds
- binding [3]: binds
- binding [4]: binds
Substance: KIF5B (kinesin-1), endogenous in human iPSC-derived spinal motor neurons (from UniProt P33176 1-963)
- binding [2]: no binding (tested: 10 μM peptide in the medium)
